Measured values reported in the supplement of paper PMC12067093, “Discovery and optimisation of a covalent ligand for TRIM25 and its application to targeted protein ubiquitination” (Chemical Science, 2025).
Some of the results follow.

Compound: CC1Cc2ccccc2N1C(=O)C1CCCN(C1)C(=O)CCl (mixture of isomers) [TRIM25 ligand 11 (diastereomer mixture)]
Assay: probe-labelled cysteine peptide fold change vs DMSO (competition) (log2 fold change); higher = less target engagement (more negative = stronger competition)
Conditions: THP-1, incubation time: 4 h
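Further: competitive chemoproteomic profiling in live THP-1 cells with an iodoacetamide desthiobiotin (IA-DTB) probe, comparing probe-labelled peptide intensities in compound-treated cells against DMSO-treated controls.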

| Target | probe-labelled cysteine peptide fold change (10 µM) | probe-labelled cysteine peptide fold change (50 µM) |
| --- | --- | --- |
| PPP1R27_Q86WC6_79_VSLATIHPSGLAALHEAVLSGNLECVK (UniProt Q86WC6) | 0.024 | -0.236 |
| PPP1R11_O60927_62_CCCIYEK (UniProt O60927) | -0.0503 | 0.00157 |
| PPP1CB_P62140_201_IMRPTDVPDTGLLCDLLWSDPDK (UniProt P62140) | 0.0115 | 0.114 |
| PREB_Q9HCU5_128_CGAETQHEGLELR (UniProt Q9HCU5) | 0.00495 | -0.0857 |
| PRC1_O43663_236_SQNEAVCEGLR (UniProt O43663) | 0.0852 | 0.203 |
| PREPL_Q4J6C6_184_TEDSEASTCVIIK (UniProt Q4J6C6) | 0.108 | -0.0386 |
| PRAG1_Q86YV5_1087_DPVPALPTHPPAQEQDCVVVITR (UniProt Q86YV5) | 0.0381 | 0.174 |
| PPP2R1A_P30153_329_ENVIMSQILPCIK (UniProt P30153) | 0.0298 | -0.00632 |
| PRDX1_Q06830_71+83_KLNCQVIGASVDSHFCHLAWVNTPK (UniProt Q06830) | -0.00206 | 0.141 |
| PPP6C_O00743_192_GAFCDLVWSDPEDVDTWAISPR (UniProt O00743) | 0.0438 | -0.191 |
| PPP4R2_Q9NY27_22_EVCPVLDQFLCHVAK (UniProt Q9NY27) | 0.165 | -0.00762 |
| PPP3CB_P16298_477_ICSFEEAK (UniProt P16298) | -0.0332 | -0.105 |
| PPP1R3D_O95685_60_APPPTPAPSGCDPR (UniProt O95685) | 0.1 | -0.0224 |
| PPP2CA_P67775_20_ELDQWIEQLNECK (UniProt P67775) | -0.0442 | -0.2 |
| PPP6R2_O75170_769_CSSPVDTECSHAEGSR (UniProt O75170) | 0.0369 | -0.0705 |
| PPP4R3B_Q5MIZ7_182_LLQLFQACENLENTEGLHHLYEIIR (UniProt Q5MIZ7) | 0.295 | 0.24 |
| PPP4C_P60510_162_IFCVHGGLSPSIQTLDQIR (UniProt P60510) | 0.208 | 0.0465 |
| PPT1_P50897_46_ALQHLDPPAPLPLVIWHGMGDSCCNPLSMGAIKK (UniProt P50897) | -0.0224 | -0.262 |
| PPOX_P50336_418_NCIPQYTLGHWQK (UniProt P50336) | -0.186 | -0.0139 |
| PPIH_O43447_131_CDWLDGK (UniProt O43447) | -0.0259 | 0.162 |
| PPP1R12C_Q9BZL4_297_LLAEHGGGMDSLTHAGQRPCDLADEEVLSLLEELAR (UniProt Q9BZL4) | 0.136 | -0.278 |
| PPP1CC_P36873_202_PTDVPDQGLLCDLLWSDPDK (UniProt P36873) | -0.0232 | 0.0737 |
| PPM1B_O75688_172_NGQVCFSTQDHKPCNPR (UniProt O75688) | -0.0699 | -0.109 |

| Target | probe-labelled cysteine peptide fold change (10 µM) | probe-labelled cysteine peptide fold change (50 µM) |
| --- | --- | --- |
| PRDX3_P30048_127_ANEFHDVNCEVVAVSVDSHFSHLAWINTPR (UniProt P30048) | 0.407 | 0.0242 |
| PRAG1_Q86YV5_221_LAAFAGTTSGCHQGPGPLR (UniProt Q86YV5) | 0.0608 | -0.333 |
| PPIL4_Q8WUA2_294_EEDCEK (UniProt Q8WUA2) | 0.0382 | 0.00763 |
| PREB_Q9HCU5_161_VVCFNHDNTLLATGGTDGYVR (UniProt Q9HCU5) | 0.182 | 0.111 |
| PPP6C_O00743_262_LVTVWSAPNYCYR (UniProt O00743) | 0.0237 | 0.121 |
| PPP2R2A_P63151_398_VCASGK (UniProt P63151) | 0.127 | 0.287 |
| PREPL_Q4J6C6_409_NCPFQLCSPIRPPK (UniProt Q4J6C6) | 0.0424 | 0.114 |
| PPM1G_O15355_351_CVVSEAGK (UniProt O15355) | 0.0181 | -0.115 |
| PPP5C_P53041_77_TECYGYALGDATR (UniProt P53041) | 0.133 | 0.101 |
| PPP1R3D_O95685_279_YQVAGAEYWDNNDHRDYSLTCR (UniProt O95685) | -0.0121 | -0.0615 |
| PRDX1_Q06830_173_HGEVCPAGWKPGSDTIKPDVQK (UniProt Q06830) | -0.14 | -0.12 |
| PPP5C_P53041_208_CAYQILVQVK (UniProt P53041) | 0.302 | -0.0332 |
| PPP1CC_P36873_245_FLHKHDLDLICR (UniProt P36873) | -0.544 | -0.301 |
| PPP6R3_Q5H9R7_519_NTVDLVTTCHIHSSSDDEIDFK (UniProt Q5H9R7) | 0.48 | 0.025 |
| PPP2R5A_Q15172_72_DATSNEQQELFCQK (UniProt Q15172) | 0.0295 | 0.0832 |
| PPP6R2_O75170_880_LLSPACPAPK (UniProt O75170) | 0.0945 | -0.19 |
| PPT1_P50897_152+160_CPGESSHICDFIR (UniProt P50897) | 0.0171 | -0.274 |
| PPP1R27_Q86WC6_105_DEAGWTPLHIACSDGYPDIAR (UniProt Q86WC6) | -0.0556 | 0.135 |
| PRDX5_P30044_100_KGVLFGVPGAFTPGCSK (UniProt P30044) | -0.0954 | -0.177 |
| PPP1R27_Q86WC6_79_KVSLATIHPSGLAALHEAVLSGNLECVK (UniProt Q86WC6) | -0.118 | -0.273 |
| PPP6R2_O75170_264_NMFDGDRTESCLVSGTQVLLTLLETR (UniProt O75170) | 0.128 | -0.117 |
| PRDX3_P30048_229_AFQYVETHGEVCPANWTPDSPTIK (UniProt P30048) | 0.132 | 0.0626 |
| PPP1R12A_O14974_48_VKFDDGAVFLAACSSGDTDEVLK (UniProt O14974) | -0.0752 | -0.163 |

| Target | probe-labelled cysteine peptide fold change (10 µM) | probe-labelled cysteine peptide fold change (50 µM) |
| --- | --- | --- |
| PPP6R2_O75170_665_FGAPHASESCSK (UniProt O75170) | -0.0129 | -0.472 |
| PRDX3_P30048_229_AFQYVETHGEVCPANWTPDSPTIKPSPAASK (UniProt P30048) | -0.0563 | -0.0995 |
| PPP4R1_Q8TF05_663_QNWHCLR (UniProt Q8TF05) | 0.125 | 0.0913 |
| PPP2R1B_P30154_524_MTTLFCINALSEACGQEITTK (UniProt P30154) | 0.0817 | 0.301 |
| PPP2R1A_P30153_174_NLCSDDTPMVR (UniProt P30153) | -0.1 | -0.168 |
| PPP1CB_P62140_201_RIMRPTDVPDTGLLCDLLWSDPDK (UniProt P62140) | 0.262 | 0.0628 |
| PPP6R2_O75170_87_FKYPNTACELLTCDVPQISDR (UniProt O75170) | -0.00427 | -0.00558 |
| PPP1CA_P62136_202_IMRPTDVPDQGLLCDLLWSDPDKDVQGWGENDR (UniProt P62136) | -0.164 | -0.218 |
| PPP1CB_P62140_244_FLNRHDLDLICR (UniProt P62140) | -0.0305 | -0.0389 |
| PPT1_P50897_152_CPGESSHICDFIR (UniProt P50897) | 0.119 | -0.171 |
| PREP_P48147_264_LWYCDLQQESSGIAGILK (UniProt P48147) | -0.00454 | -0.0172 |
| PPM1H_Q9ULR3_239_IPHECLVIGALESAFK (UniProt Q9ULR3) | 0.0379 | 0.00172 |
| PRC1_O43663_14_RSEVLAEESIVCLQK (UniProt O43663) | 0.101 | -0.0856 |
| PPWD1_Q96BP3_512_LFPVECPK (UniProt Q96BP3) | 0.113 | -0.0164 |
| PRDX2_P32119_70_LGCEVLGVSVDSQFTHLAWINTPRK (UniProt P32119) | -0.0824 | 0.00679 |
| PREB_Q9HCU5_280_LRQPPPCYLTAWDGSNFLPLR (UniProt Q9HCU5) | -0.019 | -0.165 |
| PPP2R5E_Q16537_106_GCLTEQTYPEVVR (UniProt Q16537) | 0.146 | 0.11 |
| PRDX5_P30044_100_GVLFGVPGAFTPGCSK (UniProt P30044) | -0.259 | -0.367 |
| PPP5C_P53041_382_NRQPPDSGPMCDLLWSDPQPQNGR (UniProt P53041) | 0.0714 | -0.22 |
| PRDX4_Q13162_245_HGEVCPAGWKPGSETIIPDPAGK (UniProt Q13162) | -0.04 | -0.0318 |
| PPM1B_O75688_149_HIYFINCGDSR (UniProt O75688) | -0.0973 | -0.0801 |
